Article PMC12408345
Results are given in words; binding and its absence hold for the method and conditions named. Binding seen in cells or lysates may run through a third protein. Some binding calls cover weakened binding; strength is not graded here. For part of these data: Tags and fused reporters may be left off the sequences shown.

Amino acid sequences for entries named in this document (tags omitted).
UniProt Q9Y397: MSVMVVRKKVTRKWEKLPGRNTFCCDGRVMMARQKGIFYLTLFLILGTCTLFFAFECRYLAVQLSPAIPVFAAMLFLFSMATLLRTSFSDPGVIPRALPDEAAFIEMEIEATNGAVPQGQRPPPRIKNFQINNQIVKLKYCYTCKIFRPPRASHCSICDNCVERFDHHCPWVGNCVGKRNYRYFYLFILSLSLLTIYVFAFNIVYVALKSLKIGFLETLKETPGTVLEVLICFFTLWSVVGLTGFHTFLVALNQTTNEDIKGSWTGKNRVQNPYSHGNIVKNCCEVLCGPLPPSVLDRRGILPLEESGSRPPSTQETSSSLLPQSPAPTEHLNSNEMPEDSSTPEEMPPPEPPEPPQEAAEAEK
UniProt P46937: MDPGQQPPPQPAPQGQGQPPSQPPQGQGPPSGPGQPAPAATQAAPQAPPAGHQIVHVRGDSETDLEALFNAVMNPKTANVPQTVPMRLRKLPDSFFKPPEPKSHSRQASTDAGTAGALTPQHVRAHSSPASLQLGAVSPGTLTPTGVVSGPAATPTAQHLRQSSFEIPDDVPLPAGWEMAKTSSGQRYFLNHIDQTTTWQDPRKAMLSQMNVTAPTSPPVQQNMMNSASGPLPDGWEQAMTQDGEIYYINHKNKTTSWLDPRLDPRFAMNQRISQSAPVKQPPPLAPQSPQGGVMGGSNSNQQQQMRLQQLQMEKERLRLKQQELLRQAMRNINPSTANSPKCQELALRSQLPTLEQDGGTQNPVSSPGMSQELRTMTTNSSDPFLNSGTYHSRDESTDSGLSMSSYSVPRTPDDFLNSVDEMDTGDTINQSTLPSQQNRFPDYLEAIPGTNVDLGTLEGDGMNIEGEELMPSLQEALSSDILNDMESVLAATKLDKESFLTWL

Key:
[1] = biological target: T1, STRN4 (endogenous, HCT116) (human (endogenous in HCT116)) (UniProt Q9NRL3); test: co-IP; endogenous proteins in HCT116 cells; lysis in 50 mM HEPES pH 7.4, 150 mM NaCl, 1% NP-40 with protease and phosphatase inhibitors; antibody overnight, protein A/G agarose 8 h at 4°C; four PBS washes; immunoblot
T1 sequence: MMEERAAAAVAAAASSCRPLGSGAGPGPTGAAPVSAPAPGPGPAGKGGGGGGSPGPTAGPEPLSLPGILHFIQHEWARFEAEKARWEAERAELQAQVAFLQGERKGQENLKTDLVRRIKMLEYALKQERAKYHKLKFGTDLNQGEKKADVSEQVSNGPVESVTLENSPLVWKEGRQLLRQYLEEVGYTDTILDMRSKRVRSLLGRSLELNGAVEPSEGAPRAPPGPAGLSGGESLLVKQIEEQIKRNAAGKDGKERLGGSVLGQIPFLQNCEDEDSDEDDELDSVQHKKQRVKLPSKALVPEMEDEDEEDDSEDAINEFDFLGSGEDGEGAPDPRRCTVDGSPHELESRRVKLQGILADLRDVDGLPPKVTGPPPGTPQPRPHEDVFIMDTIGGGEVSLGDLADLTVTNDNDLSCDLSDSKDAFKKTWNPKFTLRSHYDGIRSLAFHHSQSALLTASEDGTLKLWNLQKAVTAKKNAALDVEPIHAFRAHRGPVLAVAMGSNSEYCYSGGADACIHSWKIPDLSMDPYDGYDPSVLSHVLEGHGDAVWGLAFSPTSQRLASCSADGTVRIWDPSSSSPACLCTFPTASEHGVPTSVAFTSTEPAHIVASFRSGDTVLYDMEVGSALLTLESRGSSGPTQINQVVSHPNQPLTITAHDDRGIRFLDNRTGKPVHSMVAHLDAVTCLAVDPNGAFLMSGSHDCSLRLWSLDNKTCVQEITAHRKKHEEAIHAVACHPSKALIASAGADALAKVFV

STRN4-3×Flag (human) = biological target: T2, STRN4-3×Flag (human) (UniProt Q9NRL3); test: co-IP; overexpressed tagged proteins in HEK293T cells; lysis in 50 mM HEPES pH 7.4, 150 mM NaCl, 1% NP-40 with protease and phosphatase inhibitors; antibody overnight, protein A/G agarose 8 h at 4°C; four PBS washes; immunoblot
T2 sequence: T1 sequence

Substance | binding [1] | binding (STRN4-3×Flag (human))
DHHC9 (endogenous, HCT116) (from UniProt Q9Y397 1-364) (enzyme) | binds | 
DHHC9-3×HA (from UniProt Q9Y397 1-364) (enzyme) |  | binds
Myc-YAP1 (from UniProt P46937 1-504) |  | binds
